Test results from PMC7524730.
Results are given in words; binding and its absence hold for the method and conditions named. In cells and extracts the contact can be indirect. Here binding means that the protein was enriched with, or labelled near, the bait; the list need not be complete.

Sequences of proteins named here, by UniProt entry; tags and fusion partners are left off.
UniProt P28482: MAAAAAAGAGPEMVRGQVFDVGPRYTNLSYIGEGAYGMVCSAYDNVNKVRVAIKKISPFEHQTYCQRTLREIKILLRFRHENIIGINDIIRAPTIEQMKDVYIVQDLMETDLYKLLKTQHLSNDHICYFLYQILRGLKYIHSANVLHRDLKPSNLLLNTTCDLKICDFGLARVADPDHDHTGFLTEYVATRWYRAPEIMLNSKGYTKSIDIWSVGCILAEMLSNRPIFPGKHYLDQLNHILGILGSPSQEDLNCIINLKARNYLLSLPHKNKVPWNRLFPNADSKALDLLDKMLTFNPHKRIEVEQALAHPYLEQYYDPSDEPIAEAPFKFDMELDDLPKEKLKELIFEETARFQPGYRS
UniProt O14744: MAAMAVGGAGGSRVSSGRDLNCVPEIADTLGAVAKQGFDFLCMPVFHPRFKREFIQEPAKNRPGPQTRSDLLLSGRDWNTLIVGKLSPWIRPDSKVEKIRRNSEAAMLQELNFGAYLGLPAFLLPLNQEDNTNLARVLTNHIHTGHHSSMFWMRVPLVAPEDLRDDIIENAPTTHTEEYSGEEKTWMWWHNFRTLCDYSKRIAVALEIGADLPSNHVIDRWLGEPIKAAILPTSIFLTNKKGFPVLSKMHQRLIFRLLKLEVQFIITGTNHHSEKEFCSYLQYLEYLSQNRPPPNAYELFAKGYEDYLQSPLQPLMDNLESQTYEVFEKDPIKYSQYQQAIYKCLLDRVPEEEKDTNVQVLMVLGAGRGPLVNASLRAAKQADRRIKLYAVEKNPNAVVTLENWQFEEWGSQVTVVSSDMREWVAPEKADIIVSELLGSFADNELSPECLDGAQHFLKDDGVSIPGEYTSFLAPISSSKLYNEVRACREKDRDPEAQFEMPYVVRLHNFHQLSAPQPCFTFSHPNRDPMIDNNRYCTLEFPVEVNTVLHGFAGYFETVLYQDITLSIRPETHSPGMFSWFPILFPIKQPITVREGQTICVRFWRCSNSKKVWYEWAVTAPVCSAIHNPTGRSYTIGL
UniProt Q09028: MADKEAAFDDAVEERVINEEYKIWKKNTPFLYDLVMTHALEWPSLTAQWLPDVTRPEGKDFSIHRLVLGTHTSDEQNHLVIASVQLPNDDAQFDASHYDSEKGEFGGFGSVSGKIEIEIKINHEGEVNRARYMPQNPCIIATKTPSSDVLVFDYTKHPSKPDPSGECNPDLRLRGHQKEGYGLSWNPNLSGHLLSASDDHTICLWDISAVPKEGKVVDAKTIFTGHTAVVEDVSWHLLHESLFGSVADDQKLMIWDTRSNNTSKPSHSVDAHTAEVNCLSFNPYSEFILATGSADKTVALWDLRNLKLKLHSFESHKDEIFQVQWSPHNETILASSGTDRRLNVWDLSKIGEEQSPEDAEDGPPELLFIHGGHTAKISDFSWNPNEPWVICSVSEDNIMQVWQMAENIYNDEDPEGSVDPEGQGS
UniProt O14929: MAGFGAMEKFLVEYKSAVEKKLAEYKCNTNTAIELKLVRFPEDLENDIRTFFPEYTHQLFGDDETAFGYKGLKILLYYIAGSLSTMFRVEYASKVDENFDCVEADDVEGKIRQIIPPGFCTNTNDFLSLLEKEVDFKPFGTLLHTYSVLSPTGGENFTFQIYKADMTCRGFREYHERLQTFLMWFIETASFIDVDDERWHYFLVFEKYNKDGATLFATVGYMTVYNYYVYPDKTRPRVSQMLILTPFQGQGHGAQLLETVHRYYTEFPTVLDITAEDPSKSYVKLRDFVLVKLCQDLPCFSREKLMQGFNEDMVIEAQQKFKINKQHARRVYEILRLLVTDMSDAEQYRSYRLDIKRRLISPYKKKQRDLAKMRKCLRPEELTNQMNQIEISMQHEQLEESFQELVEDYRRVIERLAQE

target: T1, Lymphoid-specific helicase (LSH), expressed in 293T cells (human) (UniProt Q9NRZ9); assay: affinity purification with mass spectrometry; IP with an anti-LSH antibody from 293T cells stably expressing LSH, then mass spectrometry
T1 sequence: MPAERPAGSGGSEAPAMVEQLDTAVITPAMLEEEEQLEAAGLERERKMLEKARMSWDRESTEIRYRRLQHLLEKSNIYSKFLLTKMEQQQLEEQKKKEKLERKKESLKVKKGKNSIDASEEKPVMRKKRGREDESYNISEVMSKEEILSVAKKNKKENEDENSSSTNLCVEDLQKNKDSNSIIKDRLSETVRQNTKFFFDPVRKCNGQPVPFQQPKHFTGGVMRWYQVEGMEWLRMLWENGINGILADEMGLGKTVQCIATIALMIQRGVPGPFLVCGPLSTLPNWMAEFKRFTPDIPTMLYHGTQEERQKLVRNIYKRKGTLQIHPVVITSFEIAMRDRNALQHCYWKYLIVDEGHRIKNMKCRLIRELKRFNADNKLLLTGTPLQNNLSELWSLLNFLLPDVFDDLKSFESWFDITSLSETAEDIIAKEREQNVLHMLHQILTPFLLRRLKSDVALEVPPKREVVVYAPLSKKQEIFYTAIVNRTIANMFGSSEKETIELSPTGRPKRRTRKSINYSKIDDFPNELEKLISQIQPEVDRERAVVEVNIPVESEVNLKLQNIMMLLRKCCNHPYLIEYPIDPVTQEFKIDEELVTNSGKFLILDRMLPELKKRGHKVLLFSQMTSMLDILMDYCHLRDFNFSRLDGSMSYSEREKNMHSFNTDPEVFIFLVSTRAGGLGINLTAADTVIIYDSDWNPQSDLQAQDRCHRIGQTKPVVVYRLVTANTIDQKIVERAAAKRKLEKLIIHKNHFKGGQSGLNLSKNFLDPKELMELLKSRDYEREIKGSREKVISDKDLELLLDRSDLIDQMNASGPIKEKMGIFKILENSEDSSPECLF

| Molecule | binding |
| --- | --- |
| MAPK1 (from UniProt P28482 1-360) (enzyme) | binds |
| Protein arginine methyltransferase 5 (PRMT5), in 293T cells expressing LSH (from UniProt O14744 1-637) (enzyme) | binds |
| RB binding protein 4 (RBBP4) (from UniProt Q09028 1-425) | binds |
| histone acetyltransferase 1 (HAT1) (from UniProt O14929 1-419) (enzyme) | binds |
| minichromosome maintenance 3 (MCM3) (protein, UniProt P25205 1-808) MAGTVVLDDVELREAQRDYLDFLDDEEDQGIYQSKVRELISDNQYRLIVNVNDLRRKNEKRANRLLNNAFEELVAFQRALKDFVASIDATYAKQYEEFYVGLEGSFGSKHVSPRTLTSCFLSCVVCVEGIVTKCSLVRPKVVRSVHYCPATKKTIERRYSDLTTLVAFPSSSVYPTKDEENNPLETEYGLSVYKDHQTITIQEMPEKAPAGQLPRSVDVILDDDLVDKAKPGDRVQVVGTYRCLPGKKGGYTSGTFRTVLIACNVKQMSKDAQPSFSAEDIAKIKKFSKTRSKDIFDQLAKSLAPSIHGHDYVKKAILCLLLGGVERDLENGSHIRGDINILLIGDPSVAKSQLLRYVLCTAPRAIPTTGRGSSGVGLTAAVTTDQETGERRLEAGAMVLADRGVVCIDEFDKMSDMDRTAIHEVMEQGRVTIAKAGIHARLNARCSVLAAANPVYGRYDQYKTPMENIGLQDSLLSRFDLLFIMLDQMDPEQDREISDHVLRMHRYRAPGEQDGDAMPLGSAVDILATDDPNFSQEDQQDTQIYEKHDNLLHGTKKKKEKMVSAAFMKKYIHVAKIIKPVLTQESATYIAEEYSRLRSQDSMSSDTARTSPVTARTLETLIRLATAHAKARMSKTVDLQDAEEAVELVQYAYFKKVLEKEKKRKKRSEDESETEDEEEKSQEDQEQKRKRRKTRQPDAKDGDSYDPYDFSDTEEEMPQVHTPKTADSQETKESQKVELSESRLKAFKVALLDVFREAHAQSIGMNRLTESINRDSEEPFSSVEIQAALSKMQDDNQVMVSEGIIFLI | binds |
